The values below come from ChEMBL document CHEMBL3763113, “Discovery of spirocyclic proline tryptophan hydroxylase-1 inhibitors” (Bioorg Med Chem Lett, 2016).

The test system of data set [1] is Mus musculus. The data set is described as follows: Decrease in 5-HT levels in mouse gut mucosa at 150 mg/kg, po administered as single dose for 16 hrs. The following applies: read-out: INH.
Data set [2] has as its system Rattus norvegicus. The data set is described as follows: Decrease in 5-HT levels in rat intestinal mucosa at 100 mg/kg, po bid measured after 16 hrs relative to control. Type of data set: functional. Details: scale not given: the % may be the effect or the level left.
The nature of data set [3]: Oral bioavailability in rat at 25 mg/kg. It counts as ADME, organism-based. Conditions: in vivo.
Data set [4] in a line: Half life in rat at 1 mg/kg, iv. It counts as ADME, organism-based. The following applies: in vivo.
Data set [5] in a line: AUC(0 to last) in rat at 25 mg/kg, po. Details: dose 25 mg/kg, time 0 - last, route oral. Type of data set: ADME, organism-based. Conditions: in vivo.
Data set [6] is described as follows: Volume of distribution at steady state in rat at 1 mg/kg, iv. Type of data set: ADME, organism-based. Conditions: in vivo, read-out: Vdss.
Data set [7] has as its system Rattus norvegicus. The data set is described as follows: Decrease in 5-HT levels in rat platelet rich plasma at 100 mg/kg, po bid measured after 16 hrs relative to control. It counts as functional. Details: scale not given: the % may be the effect or the level left.
Data set [8] is described as follows: Clearance in rat at 25 mg/kg, po and 1 mg/kg, iv. Type of data set: ADME, organism-based. The following applies: in vivo.
A short description of data set [9]: Cmax in rat at 25 mg/kg, po. Type of data set: ADME, organism-based. Details: dose 25 mg/kg, route oral. Conditions: in vivo.

Molecules are shown by their SMILES.

Consider `Cc1ccn(-c2cc(Cl)ccc2[C@@H](Oc2cc(N3CCC4(CC3)CN[C@H](C(=O)O)C4)nc(N)n2)C(F)(F)F)n1`, for which the inhibition in vivo at 150 mg/kg in data set [1] came out at 28%. The Activity is recorded as 57% in data set [2] and 70% in data set [7]. For the same compound, in data set [3], the bioavailability was under 1%. For the same compound, the half-life in [4] is 156 min. In addition, the AUC(0-t) in data set [5] was found to be 158 ng·h/mL. Moreover, the Vd in data set [6] was 0.56 L/kg. In addition, the clearance in data set [8] turned out to be 11.5 mL/min/kg. This compound registered a Cmax in data set [9] of 29 ng/mL.

Broadly, the bioavailability is dose-corrected exposure relative to a reference, in per cent. Usually half-life stands for the time in which the quantity being followed falls by half. In general, AUC(0-t) refers to exposure summed from dosing to a finite time, without extrapolation to infinity. For orientation: Cmax means the highest concentration seen after dosing.
